Reference: PubChem BioAssay AID1224828 (NIAID, 2016)
The deposit covers about 17,000 reagents; below is an unselected part. 762 of them (4.5%) were called active. 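Active calls include both raised and lowered p65 entry, mostly lowered; wells with fewer than 50 cells lack a z-score.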 Raw values are not corrected between plates. Reagent sequences are not shown.

- Assay: 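Regulators linking TLR4 signalling to p65 nuclear translocation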 (primary screen)
- Cell system: mouse RAW264.7 G9 macrophage reporter cells (GFP-p65, Tnf promoter-mCherry)
- Knock-down reagent: siRNA pool against mouse genes, 100 nM
- Timing: 2 days siRNA transfection, then 40 min LPS before fixation
- Conditions: LPS (Salmonella minnesota R595) at 10 ng/ml
- Measured: 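Microscopy ratio of nuclear to perinuclear-ring GFP-p65 signal, scaled to the plate median; gene score is the average of two replicate robust z-scores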
- Scale: p65 translocation robust z-score: higher = more nuclear NF-kappaB p65 after LPS than the plate median; nuclear/cytoplasmic p65 ratio: higher = more nuclear NF-kappaB p65
- Call rule: 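Active if robust z is above 3.3 (negative regulators) or below -1.56, the Tlr4 control median (positive regulators); activity score 50 or more; control wells not called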
- Calls: active = hit (p65 shift raised or lowered); inactive = no clear change

gene symbol | p65 translocation robust z-score | nuclear/cytoplasmic p65 ratio, rep 1 | nuclear/cytoplasmic p65 ratio, rep 2 | low cell count flag | activity call
Or8k36 (GeneID 404326) | -0.36 | 1.59 | 1.53 | enough cells to score | inactive
Vmn1r8 (GeneID 171205) | 1.82 | 1.67 | 1.4 | enough cells to score | inactive
Ufd1 (GeneID 22230) | -1.63 | 1.33 | 1.23 | enough cells to score | active
Pbdc1 (GeneID 67683) | -1.07 | 1.27 | 1.31 | enough cells to score | inactive
Anks1b (GeneID 77531) | – | 1.35 | 1.37 | fewer than 50 cells per well; well left out of scoring | inactive
Fabp9 (GeneID 21884) | 3.16 | 2.12 | 1.84 | enough cells to score | inactive
Ggps1 (GeneID 14593) | -1.09 | 1.25 | 1.27 | enough cells to score | inactive
4930503E14Rik (GeneID 74954) | 0.66 | 1.39 | 1.38 | enough cells to score | inactive
Nphp1 (GeneID 53885) | -0.97 | 1.37 | 1.23 | enough cells to score | inactive
Afm (GeneID 280662) | -1.04 | 1.43 | 1.54 | enough cells to score | inactive
Rabggtb (GeneID 19352) | 1.57 | 1.79 | 1.69 | enough cells to score | inactive
Suz12 (GeneID 52615) | 0.55 | 1.59 | 1.39 | enough cells to score | inactive
Rasgrp4 (GeneID 233046) | -0.53 | 1.42 | 1.46 | enough cells to score | inactive
Pcdhgc3 (GeneID 93706) | -0.63 | 1.42 | 1.11 | enough cells to score | inactive

The list goes on; the last 3 above are carried over.
gene symbol | p65 translocation robust z-score | nuclear/cytoplasmic p65 ratio, rep 1 | nuclear/cytoplasmic p65 ratio, rep 2 | low cell count flag | activity call
Suz12 (GeneID 52615) | 0.55 | 1.59 | 1.39 | enough cells to score | inactive
Rasgrp4 (GeneID 233046) | -0.53 | 1.42 | 1.46 | enough cells to score | inactive
Pcdhgc3 (GeneID 93706) | -0.63 | 1.42 | 1.11 | enough cells to score | inactive
Birc3 (GeneID 11796) | 0.29 | 1.71 | 1.61 | enough cells to score | inactive
Gpr82 (GeneID 319200) | 0.93 | 1.64 | 1.71 | enough cells to score | inactive
Dpysl2 (GeneID 12934) | 0.04 | 1.41 | 1.37 | enough cells to score | inactive
Rnf8 (GeneID 58230) | -0.77 | 1.26 | 1.55 | enough cells to score | inactive
Dok5 (GeneID 76829) | 1.35 | 1.68 | 1.54 | enough cells to score | inactive
Nelfb (GeneID 58202) | -0.15 | 1.36 | 1.5 | enough cells to score | inactive
Dtd1 (GeneID 66044) | 0.88 | 1.87 | 1.59 | enough cells to score | inactive
Themis (GeneID 210757) | -1.17 | 1.3 | 1.04 | enough cells to score | inactive
Eif2s1 (GeneID 13665) | 0.63 | 1.57 | 1.42 | enough cells to score | inactive
Tagln (GeneID 21345) | 0.32 | 1.56 | 1.52 | enough cells to score | inactive
